According to the supplement of paper PMC10849652:
Some of the results follow.

Sequences of proteins named here, by UniProt entry; tags and fusion partners are left off. A change or cut given only in a name is not applied to a line headed by its entry.
UniProt Q15758: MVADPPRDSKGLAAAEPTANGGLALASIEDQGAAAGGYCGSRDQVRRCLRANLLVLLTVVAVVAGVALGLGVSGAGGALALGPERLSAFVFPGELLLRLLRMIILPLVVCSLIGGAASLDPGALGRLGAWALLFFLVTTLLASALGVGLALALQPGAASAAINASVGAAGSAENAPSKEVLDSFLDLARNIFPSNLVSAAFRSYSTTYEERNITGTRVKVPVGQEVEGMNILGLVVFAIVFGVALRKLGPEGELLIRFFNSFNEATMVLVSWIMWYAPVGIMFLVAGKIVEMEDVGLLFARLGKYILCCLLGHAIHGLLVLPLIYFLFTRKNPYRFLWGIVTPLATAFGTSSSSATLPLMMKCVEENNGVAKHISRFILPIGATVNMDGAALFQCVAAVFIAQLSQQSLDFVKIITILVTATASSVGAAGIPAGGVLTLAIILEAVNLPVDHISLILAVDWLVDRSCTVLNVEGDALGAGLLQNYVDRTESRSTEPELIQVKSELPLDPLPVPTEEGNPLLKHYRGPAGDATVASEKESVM
UniProt Q9UGK8: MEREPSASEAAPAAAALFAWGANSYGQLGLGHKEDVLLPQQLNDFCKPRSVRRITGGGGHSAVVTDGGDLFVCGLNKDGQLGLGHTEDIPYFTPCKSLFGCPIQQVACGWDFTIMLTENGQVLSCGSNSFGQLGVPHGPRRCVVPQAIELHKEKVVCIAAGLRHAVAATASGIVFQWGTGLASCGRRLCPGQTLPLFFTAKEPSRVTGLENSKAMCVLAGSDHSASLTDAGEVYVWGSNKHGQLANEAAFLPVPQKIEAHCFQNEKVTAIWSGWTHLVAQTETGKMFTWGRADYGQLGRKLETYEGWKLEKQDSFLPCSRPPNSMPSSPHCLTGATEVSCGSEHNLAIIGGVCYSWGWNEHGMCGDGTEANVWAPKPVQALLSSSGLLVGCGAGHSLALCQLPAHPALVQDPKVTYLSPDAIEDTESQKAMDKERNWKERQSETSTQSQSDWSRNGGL
UniProt P50454: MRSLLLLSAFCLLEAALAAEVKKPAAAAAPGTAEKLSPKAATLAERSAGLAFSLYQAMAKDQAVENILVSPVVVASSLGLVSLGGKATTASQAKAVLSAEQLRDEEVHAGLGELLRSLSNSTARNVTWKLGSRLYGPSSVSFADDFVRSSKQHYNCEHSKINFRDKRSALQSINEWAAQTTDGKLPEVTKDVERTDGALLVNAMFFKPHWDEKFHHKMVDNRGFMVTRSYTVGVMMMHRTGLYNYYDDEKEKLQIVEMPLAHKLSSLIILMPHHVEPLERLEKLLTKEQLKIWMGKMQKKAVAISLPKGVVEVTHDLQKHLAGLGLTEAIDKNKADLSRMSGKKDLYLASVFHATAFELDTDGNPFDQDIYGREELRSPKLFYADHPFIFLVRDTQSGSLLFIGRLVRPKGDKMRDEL
UniProt Q8WUM9: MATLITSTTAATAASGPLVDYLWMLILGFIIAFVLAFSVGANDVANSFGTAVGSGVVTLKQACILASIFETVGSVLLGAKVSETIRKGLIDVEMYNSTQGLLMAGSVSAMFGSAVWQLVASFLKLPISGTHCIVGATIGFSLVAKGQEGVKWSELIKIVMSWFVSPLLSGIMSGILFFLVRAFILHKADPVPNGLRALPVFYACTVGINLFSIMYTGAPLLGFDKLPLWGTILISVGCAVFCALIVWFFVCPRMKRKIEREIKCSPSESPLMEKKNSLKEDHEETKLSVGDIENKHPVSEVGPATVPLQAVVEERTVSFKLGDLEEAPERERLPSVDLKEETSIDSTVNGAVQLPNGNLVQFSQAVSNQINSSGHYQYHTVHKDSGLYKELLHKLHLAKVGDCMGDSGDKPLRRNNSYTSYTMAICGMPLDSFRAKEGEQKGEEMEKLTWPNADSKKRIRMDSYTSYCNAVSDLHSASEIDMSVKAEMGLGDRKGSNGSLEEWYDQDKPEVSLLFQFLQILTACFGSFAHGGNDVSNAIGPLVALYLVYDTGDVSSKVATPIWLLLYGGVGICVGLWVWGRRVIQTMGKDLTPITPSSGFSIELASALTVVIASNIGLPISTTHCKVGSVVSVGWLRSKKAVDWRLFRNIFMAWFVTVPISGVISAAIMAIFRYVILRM
UniProt Q15459: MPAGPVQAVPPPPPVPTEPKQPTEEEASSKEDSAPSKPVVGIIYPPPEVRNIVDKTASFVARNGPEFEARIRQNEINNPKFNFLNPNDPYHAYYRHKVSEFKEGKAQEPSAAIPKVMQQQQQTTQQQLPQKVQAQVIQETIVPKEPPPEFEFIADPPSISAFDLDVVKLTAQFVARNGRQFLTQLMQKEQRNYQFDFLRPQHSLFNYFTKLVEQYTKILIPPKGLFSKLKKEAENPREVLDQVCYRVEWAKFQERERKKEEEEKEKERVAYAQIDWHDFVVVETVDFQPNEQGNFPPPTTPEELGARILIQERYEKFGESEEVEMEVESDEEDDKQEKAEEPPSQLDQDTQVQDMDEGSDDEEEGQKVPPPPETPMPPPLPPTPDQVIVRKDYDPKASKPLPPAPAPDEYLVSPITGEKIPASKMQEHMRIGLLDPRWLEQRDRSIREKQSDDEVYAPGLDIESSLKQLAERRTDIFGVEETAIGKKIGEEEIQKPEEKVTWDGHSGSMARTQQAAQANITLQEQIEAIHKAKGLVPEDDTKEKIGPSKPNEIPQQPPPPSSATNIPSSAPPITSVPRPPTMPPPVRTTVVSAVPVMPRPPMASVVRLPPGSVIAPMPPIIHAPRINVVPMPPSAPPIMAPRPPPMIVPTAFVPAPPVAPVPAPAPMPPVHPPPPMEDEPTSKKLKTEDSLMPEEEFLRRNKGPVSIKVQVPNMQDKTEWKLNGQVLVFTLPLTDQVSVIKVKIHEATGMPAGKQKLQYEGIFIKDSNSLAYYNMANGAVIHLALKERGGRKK
UniProt P34897: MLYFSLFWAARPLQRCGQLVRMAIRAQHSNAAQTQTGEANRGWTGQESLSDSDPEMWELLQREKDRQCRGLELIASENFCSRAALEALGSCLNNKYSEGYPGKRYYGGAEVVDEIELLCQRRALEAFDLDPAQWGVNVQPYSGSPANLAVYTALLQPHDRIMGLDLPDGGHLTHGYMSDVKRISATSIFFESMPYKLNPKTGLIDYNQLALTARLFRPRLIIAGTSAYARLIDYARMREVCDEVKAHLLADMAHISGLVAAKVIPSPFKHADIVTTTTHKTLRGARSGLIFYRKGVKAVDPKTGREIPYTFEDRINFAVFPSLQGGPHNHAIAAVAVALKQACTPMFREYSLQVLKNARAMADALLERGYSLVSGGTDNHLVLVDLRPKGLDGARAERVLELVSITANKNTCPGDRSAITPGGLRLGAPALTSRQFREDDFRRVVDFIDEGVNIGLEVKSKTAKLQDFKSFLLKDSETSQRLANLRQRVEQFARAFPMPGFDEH
UniProt Q2M3G4: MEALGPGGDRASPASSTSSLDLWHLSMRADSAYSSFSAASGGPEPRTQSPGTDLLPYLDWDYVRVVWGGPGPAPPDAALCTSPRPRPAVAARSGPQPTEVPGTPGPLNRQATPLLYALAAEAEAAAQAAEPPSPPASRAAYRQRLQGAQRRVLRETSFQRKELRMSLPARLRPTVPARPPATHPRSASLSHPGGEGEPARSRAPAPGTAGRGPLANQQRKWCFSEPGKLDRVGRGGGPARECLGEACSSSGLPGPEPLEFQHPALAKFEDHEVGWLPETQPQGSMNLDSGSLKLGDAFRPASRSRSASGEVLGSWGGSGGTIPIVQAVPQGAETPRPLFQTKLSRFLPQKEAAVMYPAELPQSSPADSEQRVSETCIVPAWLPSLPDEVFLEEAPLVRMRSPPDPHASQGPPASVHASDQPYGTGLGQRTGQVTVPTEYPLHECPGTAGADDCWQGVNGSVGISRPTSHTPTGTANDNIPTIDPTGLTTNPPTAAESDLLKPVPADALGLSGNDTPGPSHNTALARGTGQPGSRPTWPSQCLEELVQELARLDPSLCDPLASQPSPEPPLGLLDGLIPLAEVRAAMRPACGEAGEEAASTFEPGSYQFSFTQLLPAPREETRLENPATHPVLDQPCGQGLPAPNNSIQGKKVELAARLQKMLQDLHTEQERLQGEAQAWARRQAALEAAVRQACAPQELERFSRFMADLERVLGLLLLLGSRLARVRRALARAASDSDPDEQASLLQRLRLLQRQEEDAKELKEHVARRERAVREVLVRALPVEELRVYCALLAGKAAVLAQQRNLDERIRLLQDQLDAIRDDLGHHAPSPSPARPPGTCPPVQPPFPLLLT
UniProt Q15393: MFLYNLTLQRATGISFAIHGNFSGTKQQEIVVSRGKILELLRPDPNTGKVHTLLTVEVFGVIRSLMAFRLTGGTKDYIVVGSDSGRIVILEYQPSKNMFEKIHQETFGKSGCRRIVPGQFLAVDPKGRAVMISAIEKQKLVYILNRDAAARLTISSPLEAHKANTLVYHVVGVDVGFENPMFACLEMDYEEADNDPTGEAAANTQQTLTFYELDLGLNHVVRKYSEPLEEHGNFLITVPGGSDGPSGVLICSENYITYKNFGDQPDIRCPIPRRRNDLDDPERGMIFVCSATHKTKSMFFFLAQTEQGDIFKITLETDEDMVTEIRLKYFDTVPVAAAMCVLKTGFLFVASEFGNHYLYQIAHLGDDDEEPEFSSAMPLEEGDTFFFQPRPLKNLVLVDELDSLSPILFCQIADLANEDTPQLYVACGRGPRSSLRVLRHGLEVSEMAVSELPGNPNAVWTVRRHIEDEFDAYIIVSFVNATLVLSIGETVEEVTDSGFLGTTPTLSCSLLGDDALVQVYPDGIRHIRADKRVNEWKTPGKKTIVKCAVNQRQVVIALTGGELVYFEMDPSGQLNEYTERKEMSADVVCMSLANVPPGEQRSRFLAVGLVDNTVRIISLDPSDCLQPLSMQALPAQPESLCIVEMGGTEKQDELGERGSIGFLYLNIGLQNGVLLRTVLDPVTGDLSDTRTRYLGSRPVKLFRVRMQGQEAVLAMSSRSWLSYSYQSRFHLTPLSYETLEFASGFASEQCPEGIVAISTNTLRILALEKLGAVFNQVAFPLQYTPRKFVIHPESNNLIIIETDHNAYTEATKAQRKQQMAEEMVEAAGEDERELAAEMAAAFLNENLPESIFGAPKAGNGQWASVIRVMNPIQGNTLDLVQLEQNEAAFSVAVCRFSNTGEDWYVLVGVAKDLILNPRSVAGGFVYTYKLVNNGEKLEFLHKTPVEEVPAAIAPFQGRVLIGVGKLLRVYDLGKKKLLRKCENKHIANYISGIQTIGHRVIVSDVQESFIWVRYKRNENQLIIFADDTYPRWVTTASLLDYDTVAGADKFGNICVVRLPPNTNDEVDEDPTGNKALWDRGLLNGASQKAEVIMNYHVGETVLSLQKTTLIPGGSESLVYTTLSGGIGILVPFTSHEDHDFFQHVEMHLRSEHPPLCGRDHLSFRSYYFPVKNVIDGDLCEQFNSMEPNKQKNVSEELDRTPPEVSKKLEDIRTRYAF
UniProt Q96FS4: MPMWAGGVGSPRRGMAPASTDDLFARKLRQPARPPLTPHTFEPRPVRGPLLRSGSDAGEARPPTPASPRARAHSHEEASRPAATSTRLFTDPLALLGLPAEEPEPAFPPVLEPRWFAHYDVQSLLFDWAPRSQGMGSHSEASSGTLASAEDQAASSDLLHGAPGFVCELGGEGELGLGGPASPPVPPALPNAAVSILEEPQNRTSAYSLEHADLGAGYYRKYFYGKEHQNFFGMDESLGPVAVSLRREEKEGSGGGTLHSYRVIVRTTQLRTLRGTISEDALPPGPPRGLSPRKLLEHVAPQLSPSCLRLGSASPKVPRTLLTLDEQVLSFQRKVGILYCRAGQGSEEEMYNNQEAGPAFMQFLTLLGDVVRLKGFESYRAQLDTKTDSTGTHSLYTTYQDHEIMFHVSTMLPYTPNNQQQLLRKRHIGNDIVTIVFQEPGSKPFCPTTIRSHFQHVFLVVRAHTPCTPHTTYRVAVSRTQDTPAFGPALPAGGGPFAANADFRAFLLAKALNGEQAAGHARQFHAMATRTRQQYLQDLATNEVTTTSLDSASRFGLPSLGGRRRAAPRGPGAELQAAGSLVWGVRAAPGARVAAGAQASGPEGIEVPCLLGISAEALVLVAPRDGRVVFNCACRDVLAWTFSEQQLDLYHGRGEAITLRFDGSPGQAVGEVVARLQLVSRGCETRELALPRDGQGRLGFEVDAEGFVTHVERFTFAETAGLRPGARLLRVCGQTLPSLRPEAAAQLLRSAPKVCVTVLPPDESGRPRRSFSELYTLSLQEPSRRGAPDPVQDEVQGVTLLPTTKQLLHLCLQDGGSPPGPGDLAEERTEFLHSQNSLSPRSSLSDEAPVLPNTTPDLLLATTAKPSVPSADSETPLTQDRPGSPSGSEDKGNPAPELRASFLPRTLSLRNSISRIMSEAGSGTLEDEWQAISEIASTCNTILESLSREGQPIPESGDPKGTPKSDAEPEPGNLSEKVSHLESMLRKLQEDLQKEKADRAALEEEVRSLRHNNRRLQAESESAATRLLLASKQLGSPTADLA
UniProt P84101: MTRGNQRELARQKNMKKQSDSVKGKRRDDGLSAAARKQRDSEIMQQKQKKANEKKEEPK

Key:
Assay in all cases: log2 fold change, soluble protein after heating vs DMSO (PISA); higher = thermal stabilisation; K562 lysate, 10 uM; active = over 0.2 and 3.5 SD of the protein, either way, in both replicates (recomputed)
[1] = compound: Cc1cn(-c2cc(NC(=O)c3ccc(C)c(Nc4nccc(-c5cccnc5)n4)c3)cc(C(F)(F)F)c2)cn1 [nilotinib]
In short: (§1)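 To prepare the extract, K562 pellets were dounce-homogenised in PBS pH 7.4 with 1 mM MgCl2, giving crude material at 1 mg/mL protein. This was treated with 10 μM compound for 30 min, then heated in aliquots for 3 min over 48°C-58°C before pooling and addition of NP-40 to 0.5% at 4°C. Centrifugation at 21,000xg for 90 min left soluble protein in the supernatant, which TMTpro 16plex LC-MS/MS quantified with equalised channel sums. Results are log-two fold changes in thermal stability compared with solvent controls, from duplicates.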

[2] = compound: Cc1nc(Nc2n[nH]c3c2CN(C(=O)N[C@H](CN(C)C)c2ccccc2)C3(C)C)c2sccc2n1
In short: as §1

[3] = compound: Cc1nc(Nc2ncc(C(=O)Nc3c(C)cccc3Cl)s2)cc(N2CCN(CCO)CC2)n1 [dasatinib]
In short: as §1

[4] = compound: Cc1ncc(-c2ccnc(Nc3ccc(S(C)(=O)=O)cc3)n2)n1C(C)C
In short: as §1

[5] = compound: Cn1cc(-c2ccc3c(c2)CCN3C(=O)Cc2cccc(C(F)(F)F)c2)c2c(N)ncnc21
In short: as §1

[6] = compound: Cn1cc(CNCC2CCN(c3ncc(C(=O)NO)cn3)CC2)c2ccccc21 [quisinostat]
In short: as §1

[7] = compound: Cn1cncc1[C@@](N)(c1ccc(Cl)cc1)c1ccc2c(c1)c(-c1cccc(Cl)c1)cc(=O)n2C [tipifarnib]
In short: as §1

[8] = compound: NC(=O)Nc1cc(-c2cccc(F)c2)sc1C(=O)N[C@H]1CCCNC1
In short: as §1

[9] = compound: NC(=O)c1cnc(N[C@@H]2CCCC[C@@H]2N)nc1Nc1cccc(-n2nccn2)c1
In short: as §1

[10] = compound: NC1(c2ccc(-c3nc4ccn5c(=O)[nH]nc5c4cc3-c3ccccc3)cc2)CCC1
In short: as §1

Measured: log2 fold change

SERBP1 (UniProt Q8NC51)
inactive: [1] -0.031 | [2] 0.021 | [3] 0.044 | [4] -0.006 | [5] -0.025 | [6] 0.023 | [7] 0.003 | [8] -0.012 | [9] -0.03 | [10] 0.004

SLC1A5 (UniProt Q15758)
inactive: [1] -0.005 | [2] 0.018 | [3] 0.031 | [4] -0.013 | [5] -0.022 | [6] -0.043 | [7] -0.007 | [8] 0.01 | [9] -0.008 | [10] -0.02

SFXN5 (UniProt Q8TD22)
inactive: [1] 0.055 | [2] -0.031 | [3] 0.189 | [4] 0.009 | [5] -0.063 | [6] -0.014 | [7] 0.111 | [8] -0.028 | [9] -0.038 | [10] 0.071

SF3B1 (UniProt O75533)
inactive: [1] 0.008 | [2] -0.003 | [3] -0.013 | [4] 0.007 | [5] -0.002 | [6] -0.022 | [7] 0.014 | [8] 0.036 | [9] -0.006 | [10] 0.012

2 neighbouring records already listed, quoted:
SLC1A5 (UniProt Q15758)
inactive: [1] -0.005 | [2] 0.018 | [3] 0.031 | [4] -0.013 | [5] -0.022 | [6] -0.043 | [7] -0.007 | [8] 0.01 | [9] -0.008 | [10] -0.02

SFXN5 (UniProt Q8TD22)
inactive: [1] 0.055 | [2] -0.031 | [3] 0.189 | [4] 0.009 | [5] -0.063 | [6] -0.014 | [7] 0.111 | [8] -0.028 | [9] -0.038 | [10] 0.071

Going on with the list:

SIDT2 isoform 2 (UniProt Q8NBJ9)
inactive: [1] 0.292 | [2] 0.058 | [3] -0.017 | [4] -0.052 | [5] -0.041 | [6] -0.04 | [7] -0.368 | [8] 0.05 | [9] -0.096 | [10] -0.008

SKA3 (UniProt Q8IX90)
inactive: [1] -0.046 | [2] -0.018 | [3] -0.028 | [4] 0.023 | [5] 0.002 | [6] -0.093 | [7] -0.02 | [8] 0.044 | [9] 0.034 | [10] -0.004

SLC10A7 isoform 1 (UniProt Q0GE19)
inactive: [1] 0.038 | [2] -0.004 | [3] -0.07 | [4] 0 | [5] -0.026 | [6] -0.14 | [7] -0.055 | [8] 0.028 | [9] 0.05 | [10] 0.046

SERGEF (UniProt Q9UGK8)
inactive: [1] -0.001 | [2] -0.027 | [3] 0.021 | [4] 0.053 | [5] -0.016 | [6] 0.006 | [7] -0.001 | [8] 0.138 | [9] -0.037 | [10] -0.041

SLAIN2 (UniProt Q9P270)
inactive: [1] -0.024 | [2] 0.012 | [3] 0.001 | [4] 0.005 | [5] -0.015 | [6] -0.022 | [7] -0.011 | [8] 0.003 | [9] 0 | [10] 0.023

SERPINH1 (UniProt P50454)
inactive: [1] 0.031 | [2] -0.038 | [3] -0.007 | [4] 0 | [5] -0.006 | [6] 0.026 | [7] 0.002 | [8] 0.001 | [9] -0.003 | [10] -0.008

SF3A3 (UniProt Q12874)
inactive: [1] -0.023 | [2] -0.013 | [3] -0.022 | [4] -0.047 | [5] -0.003 | [6] 0.065 | [7] 0 | [8] 0.022 | [9] 0.012 | [10] 0.033

SF3A2 (UniProt Q15428)
inactive: [1] 0.025 | [2] 0.002 | [3] -0.021 | [4] 0.025 | [5] -0.013 | [6] -0.019 | [7] -0.021 | [8] -0.028 | [9] -0.005 | [10] 0.012

SLC20A1 (UniProt Q8WUM9)
inactive: [1] -0.021 | [2] -0.001 | [3] -0.023 | [4] -0.03 | [5] 0.007 | [6] -0.048 | [7] -0.007 | [8] -0.034 | [9] 0.05 | [10] -0.099

SH3BP5 (UniProt O60239)
inactive: [1] -0.082 | [2] -0.087 | [3] -0.002 | [4] 0.098 | [5] -0.036 | [6] -0.01 | [7] 0.056 | [8] 0.011 | [9] 0.187 | [10] -0.011

SF3A1 (UniProt Q15459)
inactive: [1] -0.009 | [2] 0.008 | [3] -0.007 | [4] 0.008 | [5] 0.01 | [6] -0.026 | [7] -0.01 | [8] 0.011 | [9] -0.003 | [10] 0.007

SFXN4 (UniProt Q6P4A7)
inactive: [1] -0.034 | [2] -0.013 | [3] 0.015 | [4] 0.006 | [5] -0.066 | [6] -0.178 | [7] -0.006 | [8] 0.002 | [9] -0.067 | [10] -0.003

SHMT2 (UniProt P34897)
inactive: [1] 0.022 | [2] -0.013 | [3] -0.005 | [4] 0.006 | [5] -0.006 | [6] 0.033 | [7] 0.009 | [8] -0.013 | [9] 0.004 | [10] 0.006

SGTA (UniProt O43765)
inactive: [1] 0.001 | [2] -0.026 | [3] 0.023 | [4] 0.015 | [5] 0.002 | [6] 0 | [7] 0.039 | [8] -0.032 | [9] -0.017 | [10] 0.02

SHOC2 (UniProt Q9UQ13)
inactive: [1] -0.015 | [2] -0.01 | [3] -0.014 | [4] -0.017 | [5] 0.021 | [6] 0.023 | [7] 0.029 | [8] 0.012 | [9] 0.004 | [10] -0.022

SLC12A9 (UniProt Q9BXP2)
inactive: [1] 0.008 | [2] -0.023 | [3] -0.003 | [4] -0.07 | [5] -0.03 | [6] 0.044 | [7] -0.039 | [8] -0.065 | [9] 0.005 | [10] -0.054

SHROOM1 (UniProt Q2M3G4)
inactive: [1] -0.017 | [2] -0.031 | [3] 0.061 | [4] 0.013 | [5] 0.03 | [6] -0.022 | [7] 0.028 | [8] 0 | [9] -0.025 | [10] -0.049

SF3B3 (UniProt Q15393)
inactive: [1] 0.003 | [2] -0.009 | [3] 0 | [4] -0.005 | [5] 0.022 | [6] -0.031 | [7] 0.001 | [8] -0.002 | [9] 0.012 | [10] -0.01

SH3GLB1 isoform 2 (UniProt Q9Y371)
inactive: [1] -0.003 | [2] 0.027 | [3] -0.037 | [4] 0.016 | [5] -0.001 | [6] 0.06 | [7] -0.063 | [8] 0.011 | [9] 0.017 | [10] 0.016

SIPA1 (UniProt Q96FS4)
inactive: [1] 0.018 | [2] -0.029 | [3] 0.046 | [4] 0.029 | [5] 0.001 | [6] 0.025 | [7] -0.001 | [8] 0.028 | [9] -0.015 | [10] -0.022

SKP2 (UniProt Q13309)
inactive: [1] 0.047 | [2] -0.044 | [3] -0.004 | [4] 0.003 | [5] 0.045 | [6] -0.193 | [7] -0.035 | [8] 0.295 | [9] -0.015 | [10] -0.044

SERPINB9 (UniProt P50453)
inactive: [1] 0.013 | [2] -0.001 | [3] 0.027 | [4] 0.018 | [5] -0.031 | [6] 0.005 | [7] 0.02 | [8] -0.008 | [9] -0.011 | [10] -0.016

SERF2 (UniProt P84101)
inactive: [1] -0.098 | [2] 0.11 | [3] 0.045 | [4] -0.021 | [5] 0.062 | [6] -0.096 | [7] -0.085 | [8] -0.001 | [9] 0.227 | [10] -0.041

SETD1A (UniProt O15047)
inactive: [1] -0.03 | [2] 0.022 | [3] -0.032 | [4] 0.022 | [5] -0.022 | [6] -0.023 | [7] -0.009 | [8] 0.009 | [9] -0.023 | [10] 0.029

SKAP2 (UniProt O75563)
inactive: [1] 0.001 | [2] 0.021 | [3] 0.015 | [4] 0.019 | [5] 0.013 | [6] -0.1 | [7] 0.032 | [8] -0.004 | [9] 0 | [10] -0.005
